PubChem BioAssay AID493246, Drosophila RNAi Screening Center, 2011
The deposit covers about 21,000 reagents; below is a random part of those with a known target gene and a result. Of all reagents, 429 (2%) were called active. 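Values are raw and not normalised between plates; calls rest on per-plate z-scores that were not deposited.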 Reagents against one gene are numbered here. Not given: the amount of reagent, the time to read-out.

Purpose: 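Genome-wide search for dsRNAs that reduce cell number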 (primary screen)
Cells: Drosophila Kc and S2R+ cells
Reagents: long dsRNA against Drosophila genes
Measured: 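Raw, unnormalised count of remaining cells in each well; per-plate z-scores of cell number underlie the calls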
Direction: Kc cell number and S2R+ cell number: higher = more cells remaining
Active means: 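Counted as a hit if cell number falls by a z-score of at least 3 within its plate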

For ssh (GeneID 42986), the values are Kc cell number, rep 1 = 1.62e6; Kc cell number, rep 2 = 1.68e6; S2R+ cell number, rep 1 = 9.37e5; S2R+ cell number, rep 2 = 1.04e6; inactive.
Silencing of CG17287 (GeneID 36939) gave: Kc cell number, rep 1 = 1.72e6; Kc cell number, rep 2 = 1.84e6; S2R+ cell number, rep 1 = 1.38e6; S2R+ cell number, rep 2 = 1.51e6; inactive.
With knock-down of CG13086 (GeneID 35208) the results were Kc cell number, rep 1 = 1.86e6; Kc cell number, rep 2 = 1.90e6; S2R+ cell number, rep 1 = 1.29e6; S2R+ cell number, rep 2 = 2.82e5; inactive.
CG18131 (GeneID 33331) showed Kc cell number, rep 1 = 1.69e6; Kc cell number, rep 2 = 1.80e6; S2R+ cell number, rep 1 = 8.51e5; S2R+ cell number, rep 2 = 9.94e5; inactive.
With knock-down of Dph3 (GeneID 41352) the results were Kc cell number, rep 1 = 1.59e6; Kc cell number, rep 2 = 1.66e6; S2R+ cell number, rep 1 = 1.32e6; S2R+ cell number, rep 2 = 1.43e6; inactive.
spg (GeneID 43404) #1 gave Kc cell number, rep 1 = 1.54e6; Kc cell number, rep 2 = 1.58e6; S2R+ cell number, rep 1 = 1.03e6; S2R+ cell number, rep 2 = 1.16e6; inactive.
Knock-down of spg (GeneID 43404) #2 resulted in: Kc cell number, rep 1 = 1.59e6; Kc cell number, rep 2 = 1.60e6; S2R+ cell number, rep 1 = 1.07e6; S2R+ cell number, rep 2 = 1.18e6; inactive.
Nepl13 (GeneID 42699) gave Kc cell number, rep 1 = 1.44e6; Kc cell number, rep 2 = 1.46e6; S2R+ cell number, rep 1 = 9.77e5; S2R+ cell number, rep 2 = 1.04e6; inactive.
After knock-down of hkb (GeneID 40549), the record shows Kc cell number, rep 1 = 1.37e6; Kc cell number, rep 2 = 1.33e6; S2R+ cell number, rep 1 = 1.22e6; S2R+ cell number, rep 2 = 1.32e6; inactive.
With knock-down of janA (GeneID 43569) the results were Kc cell number, rep 1 = 1.64e6; Kc cell number, rep 2 = 1.76e6; S2R+ cell number, rep 1 = 1.13e6; S2R+ cell number, rep 2 = 1.20e6; inactive.
CG6931 (GeneID 39363) scored Kc cell number, rep 1 = 1.47e6; Kc cell number, rep 2 = 1.57e6; S2R+ cell number, rep 1 = 1.25e6; S2R+ cell number, rep 2 = 1.22e6; inactive.
Silencing of SmydA-1 (GeneID 36581) resulted in: Kc cell number, rep 1 = 1.45e6; Kc cell number, rep 2 = 1.54e6; S2R+ cell number, rep 1 = 1.15e6; S2R+ cell number, rep 2 = 1.25e6; inactive.
For t-Grip128 (GeneID 317930), the entry reads Kc cell number, rep 1 = 1.47e6; Kc cell number, rep 2 = 1.42e6; S2R+ cell number, rep 1 = 9.71e5; S2R+ cell number, rep 2 = 1.18e6; inactive.
Silencing of CG14400 (GeneID 35354) gave: Kc cell number, rep 1 = 1.50e6; Kc cell number, rep 2 = 1.59e6; S2R+ cell number, rep 1 = 1.27e6; S2R+ cell number, rep 2 = 3.79e5; inactive.
Against PpY-55A (GeneID 48532), the values are Kc cell number, rep 1 = 1.56e6; Kc cell number, rep 2 = 1.61e6; S2R+ cell number, rep 1 = 1.28e6; S2R+ cell number, rep 2 = 1.36e6; inactive.
Depletion of CG33096 (GeneID 326251) gave: Kc cell number, rep 1 = 1.62e6; Kc cell number, rep 2 = 1.59e6; S2R+ cell number, rep 1 = 1.20e6; S2R+ cell number, rep 2 = 1.22e6; inactive.
Silencing of aurB (GeneID 34504) came out at: Kc cell number, rep 1 = 1.28e6; Kc cell number, rep 2 = 1.38e6; S2R+ cell number, rep 1 = 9.91e5; S2R+ cell number, rep 2 = 1.03e6; inactive.
Depletion of hb (GeneID 41032) resulted in: Kc cell number, rep 1 = 1.49e6; Kc cell number, rep 2 = 1.70e6; S2R+ cell number, rep 1 = 1.34e6; S2R+ cell number, rep 2 = 1.37e6; inactive.
Depletion of CG15395 (GeneID 33447) came out at: Kc cell number, rep 1 = 1.47e6; Kc cell number, rep 2 = 1.50e6; S2R+ cell number, rep 1 = 1.00e6; S2R+ cell number, rep 2 = 1.14e6; inactive.
Depletion of Nepl18 (GeneID 43410) gave: Kc cell number, rep 1 = 1.52e6; Kc cell number, rep 2 = 1.55e6; S2R+ cell number, rep 1 = 1.09e6; S2R+ cell number, rep 2 = 1.17e6; inactive.
Against Snp (GeneID 37511) the deposit lists Kc cell number, rep 1 = 1.64e6; Kc cell number, rep 2 = 1.70e6; S2R+ cell number, rep 1 = 1.26e6; S2R+ cell number, rep 2 = 4.25e5; inactive.

Copied from the entries so far (2 entries):
spg (GeneID 43404) #2 — Kc cell number, rep 1 = 1.59e6; Kc cell number, rep 2 = 1.60e6; S2R+ cell number, rep 1 = 1.07e6; S2R+ cell number, rep 2 = 1.18e6; outcome = inactive
Nepl13 (GeneID 42699) — Kc cell number, rep 1 = 1.44e6; Kc cell number, rep 2 = 1.46e6; S2R+ cell number, rep 1 = 9.77e5; S2R+ cell number, rep 2 = 1.04e6; outcome = inactive
